Laboratory results published in PMC6137978.
These are yes or no findings as the source states them, for the method shown.

Molecular target: T1, Gnp4/LAX2, full length, two-hybrid bait (rice (Oryza sativa)), G3XKQ9
T1 chain: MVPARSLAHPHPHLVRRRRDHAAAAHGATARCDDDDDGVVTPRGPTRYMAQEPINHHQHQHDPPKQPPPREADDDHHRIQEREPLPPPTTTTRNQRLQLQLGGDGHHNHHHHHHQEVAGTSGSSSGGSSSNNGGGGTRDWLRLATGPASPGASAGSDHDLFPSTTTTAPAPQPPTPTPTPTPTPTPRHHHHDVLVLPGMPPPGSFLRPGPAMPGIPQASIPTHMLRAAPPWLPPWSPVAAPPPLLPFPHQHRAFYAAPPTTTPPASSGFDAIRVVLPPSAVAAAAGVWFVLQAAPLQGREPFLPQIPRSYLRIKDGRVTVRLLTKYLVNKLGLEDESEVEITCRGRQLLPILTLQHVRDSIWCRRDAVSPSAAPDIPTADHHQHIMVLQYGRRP
Test: two-hybrid; yeast AH109; Gnp4 full length or truncated in pBGKT7 as bait, pGADT7 preys; growth on SD/-T-L-H-A; library screen and test of constructs
Details: remark: other sources report otherwise

B1: LAX1, Q7XAQ6 1-215 (protein)
chain: MHDPRGFPIHPQPYHLHPTAGGLGEGRMRGGGRRRPGAKLSTDPQSVAARERRHRISDRFRVLRSLVPGGSKMDTVSMLEQAIHYVKFLKAQVTLHQAALVQHEEGCQHADVAAAFSAADADLALELNHRHGGAGDDDAGMTTLEMAPMQEAVGYGDGPAHQMMQQALDPAGQLMMGGAHQLPPLPCCVFVQETDPSCYSVCNVHGEESGAQGSY
- binding: no binding
